PubChem BioAssay AID652259, Drosophila RNAi Screening Center | 2013
The deposit covers about 22,000 reagents; this is an unselected part of those with a known target gene and a result. In the full data, 233 (1.1%) got an active call. 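Light values are raw, unnormalised plate reads; the ratio scores behind the reporter calls were not deposited.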 A plus sign joins genes that one reagent is predicted to hit. The record does not give: the amount of reagent, the time to read-out, the dose of the treatment.

Aim: 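Knock-downs that push a Wingless-driven reporter up or down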 (primary screen)
Cells: Drosophila clone 8 imaginal disc epithelial cells
Reagent: long dsRNA against Drosophila genes
Conditions: pathway stimulated by co-transfected Wingless expression plasmid
Measured: 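Firefly luciferase from a tcf-site Wingless reporter, measured alongside co-transfected Renilla luciferase that tracks transfection; pathway stimulated by a Wingless plasmid; the firefly-to-Renilla ratio is not deposited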
Reading the numbers: firefly reporter light: higher = more Wg reporter light, before normalisation; Renilla control light: higher = more transfected or surviving cells
Hit rule: 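Strong candidates differ from their plate mean by at least two out of four per-plate statistical tests; weak candidates meet just one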
Meaning of the calls: active = candidate regulator (raises or lowers reporter); inactive = not a candidate

The first 6 entries as a preview:
no.	predicted target	DRSC id	reporter change call, replicate 1	firefly reporter light, replicate 1	firefly reporter light, replicate 2	Renilla control light, replicate 1	Renilla control light, replicate 2	outcome
1	mia (meiosis I arrest)	DRSC12137		7261		1746		inactive
2	Vps39 (Vacuolar protein sorting 39)	DRSC16205		3613	7971	1357	2000	inactive
3	Jon99Fii + Jon99Cii + Jon99Ciii + 1 more	DRSC15298		11098		3968		inactive
4	crc (cryptocephal)	DRSC03513		3261	7005	979	3063	inactive
5	PGRP-LD + Cralbp + Pmi	DRSC09743		1927	6240	1954	3188	inactive
6	Cyp4ae1 (Cytochrome P450 4ae1)	DRSC18455		2790	4664	1200	1506	inactive

Results, from the first entry:
no.	predicted target	DRSC id	reporter change call, replicate 1	firefly reporter light, replicate 1	firefly reporter light, replicate 2	Renilla control light, replicate 1	Renilla control light, replicate 2	outcome
1	mia (meiosis I arrest)	DRSC12137		7261		1746		inactive
2	Vps39 (Vacuolar protein sorting 39)	DRSC16205		3613	7971	1357	2000	inactive
3	Jon99Fii + Jon99Cii + Jon99Ciii + 1 more	DRSC15298		11098		3968		inactive
4	crc (cryptocephal)	DRSC03513		3261	7005	979	3063	inactive
5	PGRP-LD + Cralbp + Pmi	DRSC09743		1927	6240	1954	3188	inactive
6	Cyp4ae1 (Cytochrome P450 4ae1)	DRSC18455		2790	4664	1200	1506	inactive
7	Taf11 (TBP-associated factor 11)	DRSC03448		2880	4816	723	2521	inactive
8	Vav (Vav guanine nucleotide exchange factor)	DRSC20384		24716		10232		inactive
9	Fs(2)Ket (Female sterile (2) Ketel)	DRSC03328	Wg reporter activity raised	17600		930		active
10	Pten (Phosphatase and tensin homolog)	DRSC03402		2656	8808	1058	3312	inactive
11	Skp2 + CG1103	DRSC12160		7794		4290		inactive
12	Skp2 + CG1103	DRSC22356		4.84e5	4.95e5	1.56e5	1.63e5	inactive
13	CG5024	DRSC15698		21704		20534		inactive
14	Grl65a (Gustatory receptor-like 65a)	DRSC08837		2421		1698		inactive
15	yki (yorkie)	DRSC04437		10301		3816		inactive
16	CG9171	DRSC03152		17272		8480		inactive
17	CG9171	DRSC21813		4.79e5	3.74e5	1.86e5	1.58e5	inactive
18	Cap-D3 (Chromosome associated protein D3)	DRSC02349		3386	5634	966	1207	inactive
19	thoc5	DRSC04327		9909		3145		inactive
20	Osi5 (Osiris 5)	DRSC12276		19168		4640		inactive
21	CG14445	DRSC17938		19666		7053		inactive
22	Usp47 (Ubiquitin specific protease 47)	DRSC11313		3250		1172		inactive
23	Aps (Aps pyrophosphatase)	DRSC10629		12054		4464		inactive
24	Mms19	DRSC12188		5255		853		inactive
25	CkIalpha (Casein kinase Ialpha)	DRSC20231	Wg reporter activity raised	1.07e5		7161		active
26	CkIalpha (Casein kinase Ialpha)	DRSC22609		1.99e6	1.94e6	1.29e5	1.28e5	inactive
27	wgn (wengen)	DRSC19998		21692		12064		inactive
28	AP-1sigma (Adaptor Protein complex 1, sigma subunit)	DRSC15899		3766	9907	1779	3408	inactive
29	Spn31A (Serpin 31A)	DRSC02780		1357	6179	851	3429	inactive
30	CG4896	DRSC00671		7729		4051		inactive
31	CG8738	DRSC07256		4113	4912	1149	3028	inactive
32	CG16965	DRSC02547		2587	6704	1018	2941	inactive
33	Polr2G (RNA polymerase II subunit G)	DRSC16068		10955		1805		inactive
34	OS9 (Olfactory-specific 9)	DRSC02700		2401	6278	656	2529	inactive
35	Nnp-1	DRSC02165		4385	8949	1299	4765	inactive
36	Sirup (Starvation-upregulated protein)	DRSC03031		3211	7617	907	4134	inactive
37	CG17549	DRSC02625		14176		4963		inactive
38	CG13258	DRSC02244		3552	4857	1329	2326	inactive
39	rha	DRSC17044		1964	8112	1376	1053	inactive
40	snoRNA:Me28S-C3227a + snoRNA:Me18S-A1061 + snoRNA:Me28S-C3227b + 7 more	DRSC05497		26019		17461		inactive
41	jumu (jumeau)	DRSC16651		6992		1592		inactive
42	CG6304	DRSC02948		8765		4140		inactive
43	Dolk (Dolichol kinase)	DRSC07143		5575		1712		inactive
44	CG32669	DRSC18864		2432		763		inactive
45	caps (capricious)	DRSC11333		5585		2487		inactive
46	caps (capricious)	DRSC22224		4.72e5	5.13e5	2.14e5	1.99e5	inactive
47	CG42394 + CG6567	DRSC12821		5512		2596		inactive
48	Pu (Punch)	DRSC04645		13193		2674		inactive
49	Cyp6a9 (Cytochrome P450 6a9)	DRSC07385		9876		5299		inactive
50	CG3345	DRSC00596		13963		4225		inactive
51	Atg6 (Autophagy-related 6)	DRSC15798		2429	5341	1173	1861	inactive
52	CG15517	DRSC15056		7872		3075		inactive
53	Elba3 (Early boundary activity 3)	DRSC00469		13840		6010		inactive
54	Nplp2 (Neuropeptide-like precursor 2)	DRSC09824		8249		2832		inactive
55	Cchl (Cytochrome c heme lyase)	DRSC15949		1922	5416	864	1573	inactive
56	bgm (bubblegum)	DRSC03495		12573		1808		inactive
57	Grx3 (Glutaredoxin 3)	DRSC02966		11085		3477		inactive
58	CG14949	DRSC08408		5953		2614		inactive
59	GstD7 (Glutathione S transferase D7)	DRSC16688		20649	8.68e5	6267	3.82e5	inactive
60	Prat (Phosphoribosylamidotransferase)	DRSC16797		3698		821		inactive
61	CG18586	DRSC10325		1308	6904	1372	2595	inactive
62	CG6294 + CG6299	DRSC19980		19821		8509		inactive
63	CG4558	DRSC18369		2753	5296	1008	2072	inactive
64	CG31680	DRSC21878		5.13e5	5.04e5	1.96e5	2.24e5	inactive
65	Ncoa6 (Nuclear receptor coactivator 6)	DRSC02353		8321		902		inactive
66	CG16825	DRSC02526		2300	6786	381	3152	inactive
67	CG15034	DRSC17966		19112		10757		inactive
68	Ssrp (Structure specific recognition protein)	DRSC04658	Wg reporter activity raised	17059		3236		inactive
69	ND-B12 (NADH dehydrogenase (ubiquinone) B12 subunit)	DRSC04060		2044	5200	626	1840	inactive
70	Past1 (Putative Achaete Scute Target 1)	DRSC16784		16251		3916		inactive
71	speck	DRSC04608		7988		2839		inactive
72	sw (short wing)	DRSC20388		5504		1509		inactive
73	CG4483	DRSC10426		3744		899		inactive
